# This is one part of the list.
# B1: LF82 (Escherichia coli) (protein)
# chain: ADWGPCRTASGDPFIFVTSFTKNIQNPTDNVTGQTYPDFYQWALGDKYSGVCECPSPNPTEARPTLYKTESTLAAGHNSTYFKITNNLEVSTRVYIANVGNVQVPFINKSNSQPGRECDQPTFGWTTGSKGQLSLYIAKPFVGEQNIPQTIIVSVFGTKKENVYSSVPISQVLLSGKVTVTQGCELAAGTSLDIDFGEYQAHDFKGRTGQPPQNVQKIQKELTFNCTNISDGVHIYLSLEGTPNAAYPSAISLGNADVGAVIEDGKGNILKPNDSNSLLEMNPGSLYEYVKRKVTTTITAYPVSTTGKLPAAGDYSGVATMHVELDGGGGGGGGGGATTDLGAKGTLKFSLKISQGHHHHHH
# Legend:
# Assay in all cases: glycan array binding signal (z-score within array); higher = stronger binding
# Conditions in all cases: glycan notation: IUPAC condensed, linker removed
# Glc(b1-6)Glc = target: Glc(b1-6)Glc
# In short: (§1)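 The binding signal is a Z-score computed within each array. Data were drawn from 3228 arrays in the Consortium for Functional Glycomics database, restricted to those with a known protein sequence. Scores were averaged over arrays of the same protein sequence at different concentrations or buffers, and over linkers, and negative values can be taken as non-binding.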
# GlcA(b1-3)Gal = target: GlcA(b1-3)Gal
# In short: as §1
# GlcA(b1-3)GlcNAc = target: GlcA(b1-3)GlcNAc
# In short: as §1
# GlcA(b1-6)Gal = target: GlcA(b1-6)Gal
# In short: as §1
# [1] = target: GlcA3S(b1-3)Gal(b1-4)GlcNAc(b1-2)Man
# In short: as §1
# [2] = target: GlcA3S(b1-3)Gal(b1-4)GlcNAc(b1-3)Gal(b1-4)Glc
# In short: as §1
# [3] = target: GlcNAc(a1-3)Gal(b1-4)GlcNAc
# In short: as §1
# [4] = target: GlcNAc(a1-4)Gal(b1-3)GlcNAc
# In short: as §1
# [5] = target: GlcNAc(a1-4)Gal(b1-4)GalNAc
# In short: as §1
# [6] = target: GlcNAc(a1-4)Gal(b1-4)GlcNAc
# In short: as §1
# [7] = target: GlcNAc(a1-4)Gal(b1-4)GlcNAc(b1-3)Gal(b1-4)Glc
# In short: as §1
# [8] = target: GlcNAc(a1-4)Gal(b1-4)GlcNAc(b1-3)Gal(b1-4)GlcNAc
# In short: as §1
# [9] = target: GlcNAc(a1-4)Gal(b1-4)GlcNAc(b1-3)Gal(b1-4)GlcNAc(b1-3)Gal(b1-4)GlcNAc
# In short: as §1
# [10] = target: GlcNAc(a1-4)Gal(b1-4)GlcNAc(b1-3)Gal(b1-4)[Fuc(a1-3)]GlcNAc(b1-3)Gal(b1-4)[Fuc(a1-3)]GlcNAc
# In short: as §1
# [11] = target: GlcNAc(a1-6)Gal(b1-4)GlcNAc
# In short: as §1
# [12] = target: GlcNAc(b1-2)Gal(b1-3)GalNAc
# In short: as §1
# [13] = target: GlcNAc(b1-2)Man(a1-3)[GlcNAc(b1-2)Man(a1-6)]Man(b1-4)GlcNAc(b1-4)GlcNAc
# In short: as §1
# [14] = target: GlcNAc(b1-2)Man(a1-3)[GlcNAc(b1-2)Man(a1-6)]Man(b1-4)GlcNAc(b1-4)[Fuc(a1-6)]GlcNAc
# In short: as §1
# [15] = target: GlcNAc(b1-2)Man(a1-3)[GlcNAc(b1-4)][GlcNAc(b1-2)Man(a1-6)]Man(b1-4)GlcNAc(b1-4)GlcNAc
# In short: as §1
# [16] = target: GlcNAc(b1-2)Man(a1-3)[GlcNAc(b1-4)][GlcNAc(b1-2)Man(a1-6)]Man(b1-4)GlcNAc(b1-4)[Fuc(a1-6)]GlcNAc
# In short: as §1
# [17] = target: GlcNAc(b1-2)[GlcNAc(b1-4)]Man(a1-3)[GlcNAc(b1-2)Man(a1-6)]Man(b1-4)GlcNAc(b1-4)GlcNAc
# In short: as §1
# [18] = target: GlcNAc(b1-2)[GlcNAc(b1-4)]Man(a1-3)[GlcNAc(b1-4)][GlcNAc(b1-2)Man(a1-6)]Man(b1-4)GlcNAc(b1-4)GlcNAc
# In short: as §1
# [19] = target: GlcNAc(b1-2)[GlcNAc(b1-4)]Man(a1-3)[GlcNAc(b1-4)][GlcNAc(b1-2)[GlcNAc(b1-6)]Man(a1-6)]Man(b1-4)GlcNAc(b1-4)GlcNAc
# In short: as §1
# [20] = target: GlcNAc(b1-2)[GlcNAc(b1-4)]Man(a1-3)[GlcNAc(b1-4)][GlcNAc(b1-2)[GlcNAc(b1-6)]Man(a1-6)]Man(b1-4)GlcNAc(b1-4)[Fuc(a1-6)]GlcNAc
# In short: as §1
# [21] = target: GlcNAc(b1-2)[GlcNAc(b1-6)]Man(a1-6)[GlcNAc(b1-2)Man(a1-3)]Man(b1-4)GlcNAc(b1-4)GlcNAc
# In short: as §1
# [22] = target: GlcNAc(b1-2)[GlcNAc(b1-6)]Man(a1-6)[GlcNAc(b1-2)Man(a1-3)]Man(b1-4)GlcNAc(b1-4)[Fuc(a1-6)]GlcNAc
# In short: as §1
# [23] = target: GlcNAc(b1-2)[GlcNAc(b1-6)]Man(a1-6)[GlcNAc(b1-4)][GlcNAc(b1-2)Man(a1-3)]Man(b1-4)GlcNAc(b1-4)GlcNAc
# In short: as §1
# GlcNAc(b1-3)Fuc = target: GlcNAc(b1-3)Fuc
# In short: as §1
# GlcNAc(b1-3)Gal = target: GlcNAc(b1-3)Gal
# In short: as §1
# [24] = target: GlcNAc(b1-3)Gal(b1-3)GalNAc
# In short: as §1
# GlcNAc(b1-3)Gal(b1-4)Glc = target: GlcNAc(b1-3)Gal(b1-4)Glc
# In short: as §1
# [25] = target: GlcNAc(b1-3)Gal(b1-4)GlcNAc
# In short: as §1
# [26] = target: GlcNAc(b1-3)Gal(b1-4)GlcNAc(b1-2)Man(a1-3)[GlcNAc(b1-3)Gal(b1-4)GlcNAc(b1-2)Man(a1-6)]Man(b1-4)GlcNAc(b1-4)GlcNAc
# In short: as §1
# [27] = target: GlcNAc(b1-3)Gal(b1-4)GlcNAc(b1-2)Man(a1-3)[GlcNAc(b1-3)Gal(b1-4)GlcNAc(b1-2)Man(a1-6)]Man(b1-4)GlcNAc(b1-4)[Fuc(a1-6)]GlcNAc
# In short: as §1
# [28] = target: GlcNAc(b1-3)Gal(b1-4)GlcNAc(b1-2)[GlcNAc(b1-3)Gal(b1-4)GlcNAc(b1-6)]Man(a1-6)[GlcNAc(b1-3)Gal(b1-4)GlcNAc(b1-2)Man(a1-3)]Man(b1-4)GlcNAc(b1-4)GlcNAc
# In short: as §1
# [29] = target: GlcNAc(b1-3)Gal(b1-4)GlcNAc(b1-3)Gal(b1-4)GlcNAc
# In short: as §1
# [30] = target: GlcNAc(b1-3)Gal(b1-4)GlcNAc(b1-3)Gal(b1-4)GlcNAc(b1-2)Man(a1-3)[GlcNAc(b1-3)Gal(b1-4)GlcNAc(b1-3)Gal(b1-4)GlcNAc(b1-2)Man(a1-6)]Man(b1-4)GlcNAc(b1-4)GlcNAc
# In short: as §1
# [31] = target: GlcNAc(b1-3)Gal(b1-4)GlcNAc(b1-3)Gal(b1-4)GlcNAc(b1-2)Man(a1-3)[GlcNAc(b1-3)Gal(b1-4)GlcNAc(b1-3)Gal(b1-4)GlcNAc(b1-2)Man(a1-6)]Man(b1-4)GlcNAc(b1-4)[Fuc(a1-6)]GlcNAc
# In short: as §1
# [32] = target: GlcNAc(b1-3)Gal(b1-4)GlcNAc(b1-3)Gal(b1-4)GlcNAc(b1-2)[GlcNAc(b1-3)Gal(b1-4)GlcNAc(b1-3)Gal(b1-4)GlcNAc(b1-6)]Man(a1-6)[GlcNAc(b1-3)Gal(b1-4)GlcNAc(b1-3)Gal(b1-4)GlcNAc(b1-2)Man(a1-3)]Man(b1-4)GlcNAc(b1-4)[Fuc(a1-6)]GlcNAc
# In short: as §1
# [33] = target: GlcNAc(b1-3)Gal(b1-4)GlcNAc(b1-3)Gal(b1-4)GlcNAc(b1-3)Gal(b1-4)GlcNAc(b1-2)Man(a1-3)[GlcNAc(b1-3)Gal(b1-4)GlcNAc(b1-3)Gal(b1-4)GlcNAc(b1-3)Gal(b1-4)GlcNAc(b1-2)Man(a1-6)]Man(b1-4)GlcNAc(b1-4)GlcNAc
# In short: as §1
# [34] = target: GlcNAc(b1-3)Gal(b1-4)GlcNAc(b1-3)Gal(b1-4)GlcNAc(b1-3)Gal(b1-4)GlcNAc(b1-2)Man(a1-3)[GlcNAc(b1-3)Gal(b1-4)GlcNAc(b1-3)Gal(b1-4)GlcNAc(b1-3)Gal(b1-4)GlcNAc(b1-2)Man(a1-6)]Man(b1-4)GlcNAc(b1-4)[Fuc(a1-6)]GlcNAc
# In short: as §1
# [35] = target: GlcNAc(b1-3)Gal(b1-4)GlcNAc(b1-3)Gal(b1-4)GlcNAc(b1-3)Gal(b1-4)GlcNAc(b1-2)[GlcNAc(b1-3)Gal(b1-4)GlcNAc(b1-3)Gal(b1-4)GlcNAc(b1-3)Gal(b1-4)GlcNAc(b1-6)]Man(a1-6)[GlcNAc(b1-3)Gal(b1-4)GlcNAc(b1-3)Gal(b1-4)GlcNAc(b1-3)Gal(b1-4)GlcNAc(b1-2)Man(a1-3)]Man(b1-4)GlcNAc(b1-4)[Fuc(a1-6)]GlcNAc
# In short: as §1
# [36] = target: GlcNAc(b1-3)Gal(b1-4)GlcNAc(b1-3)Gal(b1-4)GlcNAc(b1-3)Gal(b1-4)GlcNAc(b1-3)Gal(b1-4)GlcNAc(b1-2)Man(a1-3)[GlcNAc(b1-3)Gal(b1-4)GlcNAc(b1-3)Gal(b1-4)GlcNAc(b1-3)Gal(b1-4)GlcNAc(b1-3)Gal(b1-4)GlcNAc(b1-2)Man(a1-6)]Man(b1-4)GlcNAc(b1-4)GlcNAc
# In short: as §1
# [37] = target: GlcNAc(b1-3)Gal(b1-4)GlcNAc(b1-3)Gal(b1-4)GlcNAc(b1-3)Gal(b1-4)GlcNAc(b1-3)Gal(b1-4)GlcNAc(b1-2)Man(a1-3)[GlcNAc(b1-3)Gal(b1-4)GlcNAc(b1-3)Gal(b1-4)GlcNAc(b1-3)Gal(b1-4)GlcNAc(b1-3)Gal(b1-4)GlcNAc(b1-2)Man(a1-6)]Man(b1-4)GlcNAc(b1-4)[Fuc(a1-6)]GlcNAc
# In short: as §1
# [38] = target: GlcNAc(b1-3)Gal(b1-4)GlcNAc(b1-3)Gal(b1-4)GlcNAc(b1-3)Gal(b1-4)GlcNAc(b1-3)Gal(b1-4)GlcNAc(b1-2)[GlcNAc(b1-3)Gal(b1-4)GlcNAc(b1-3)Gal(b1-4)GlcNAc(b1-3)Gal(b1-4)GlcNAc(b1-3)Gal(b1-4)GlcNAc(b1-6)]Man(a1-6)[GlcNAc(b1-3)Gal(b1-4)GlcNAc(b1-3)Gal(b1-4)GlcNAc(b1-3)Gal(b1-4)GlcNAc(b1-3)Gal(b1-4)GlcNAc(b1-2)Man(a1-3)]Man(b1-4)GlcNAc(b1-4)[Fuc(a1-6)]GlcNAc
# In short: as §1
binder,measurement,setting,value
B1,glycan array binding signal (z-score),Glc(b1-6)Glc,-0.504
same,glycan array binding signal (z-score),GlcA(b1-3)Gal,-0.731
same,glycan array binding signal (z-score),GlcA(b1-3)GlcNAc,-0.481
same,glycan array binding signal (z-score),GlcA(b1-6)Gal,-0.657
same,glycan array binding signal (z-score),[1],-0.536
same,glycan array binding signal (z-score),[2],-0.41
same,glycan array binding signal (z-score),[3],-0.08
same,glycan array binding signal (z-score),[4],-0.634
same,glycan array binding signal (z-score),[5],-0.059
same,glycan array binding signal (z-score),[6],2.49
same,glycan array binding signal (z-score),[7],-0.417
same,glycan array binding signal (z-score),[8],-0.259
same,glycan array binding signal (z-score),[9],-0.795
same,glycan array binding signal (z-score),[10],3.63
same,glycan array binding signal (z-score),[11],1.4
same,glycan array binding signal (z-score),[12],0.767
same,glycan array binding signal (z-score),[13],-0.657
same,glycan array binding signal (z-score),[14],0.963
same,glycan array binding signal (z-score),[15],0.053
same,glycan array binding signal (z-score),[16],0.495
same,glycan array binding signal (z-score),[17],-0.221
same,glycan array binding signal (z-score),[18],-0.63
same,glycan array binding signal (z-score),[19],1.13
same,glycan array binding signal (z-score),[20],0.136
same,glycan array binding signal (z-score),[21],-1.47
same,glycan array binding signal (z-score),[22],1.18
same,glycan array binding signal (z-score),[23],-0.361
same,glycan array binding signal (z-score),GlcNAc(b1-3)Fuc,-0.845
same,glycan array binding signal (z-score),GlcNAc(b1-3)Gal,-0.649
same,glycan array binding signal (z-score),[24],0.427
same,glycan array binding signal (z-score),GlcNAc(b1-3)Gal(b1-4)Glc,-0.481
same,glycan array binding signal (z-score),[25],0.711
same,glycan array binding signal (z-score),[26],-0.713
same,glycan array binding signal (z-score),[27],0.507
same,glycan array binding signal (z-score),[28],0.577
same,glycan array binding signal (z-score),[29],-0.288
same,glycan array binding signal (z-score),[30],1.79
same,glycan array binding signal (z-score),[31],-0.141
same,glycan array binding signal (z-score),[32],-0.333
same,glycan array binding signal (z-score),[33],-1.02
same,glycan array binding signal (z-score),[34],0.644
same,glycan array binding signal (z-score),[35],0.097
same,glycan array binding signal (z-score),[36],-1.09
same,glycan array binding signal (z-score),[37],2.17
same,glycan array binding signal (z-score),[38],0.23

# A different layout for some results above:
binder | measurement | setting | value
B1 | glycan array binding signal (z-score) | [36] | -1.09
same | glycan array binding signal (z-score) | [37] | 2.17
same | glycan array binding signal (z-score) | [38] | 0.23
